Values of other authors in paper PMC2606674, “Metabolism of no-carrier-added 2-[^18F]fluoro-L-tyrosine in rats” (BMC Medical Physics, 2008).

Test system: mice brain
Conditions: cited from earlier work

Structure (SMILES): [11CH3]SCC[C@H](N)C(=O)O [L-[S-methyl-^11C]methionine, L-[S-methyl-^11C]-methionine, reference compound]
- effect of an inhibitor for protein synthesis on uptake in mice brain: not influenced

Structure (SMILES): N[C@@H](Cc1ccc(O)cc1[18F])C(=O)O [2-[^18F]Tyr, 2-[^18F]fluoro-L-tyrosine]
- effect of an inhibitor for protein synthesis on uptake in mice brain: partially reduced
